Test systems include WM115; WM1716; WM1745; WM3526; WM3619; WM451Lu.
What all share (test): cleaved PARP positive nuclei fraction relative to DMSO control; melanoma cells; higher = more apoptosis
Details in all cases: library dose: low library concentration; 72 h

Results on 21 compounds are retold here after the supplement of paper PMC4604168 (melanoma cell lines).

This is one part of the list. Single values are uncertain, as repeats are few or missing.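 The apoptosis fraction was the count of cleaved-PARP antibody-stained nuclei relative to all DNA-stained nuclei, imaged in 1,536-well plates. Screening doses were set so most cells survived, and baseline and induced cleaved-PARP levels vary greatly across cell lines.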

Take `CC1(C)CCC(c2ccc(Cl)cc2)=C(CN2CCN(c3ccc(C(=O)NS(=O)(=O)c4ccc(N[C@H](CCN5CCOCC5)CSc5ccccc5)c(S(=O)(=O)C(F)(F)F)c4)cc3)CC2)C1` + Nc1nc(F)nc2c1ncn2[C@@H]1O[C@H](CO)[C@@H](O)[C@@H]1O [fludarabine] (first compound 0.4 µM, partner dose 0.2 µM): the “cleaved PARP positive nuclei fraction” value with WM115 worked out at 4170%; in the assay with WM1716, 146%; in the assay on WM1745, 649%; in the assay with WM3526, 1890%; in the assay with WM3619 it was 156%; in the assay with WM451Lu, 416%.
On to `C[C@]1(O)C[C@@H](c2nc(-c3ccc4ccc(-c5ccccc5)nc4c3)c3c(N)nccn32)C1` + O=S(=O)(c1ccccc1)N(CC(F)(F)F)c1ccc(C(O)(C(F)(F)F)C(F)(F)F)cc1 [T0901317] (first compound 0.4 µM, partner dose 1.4 µM), for which the “cleaved PARP positive nuclei fraction” value with WM115 is 198%; in the assay on WM1716, 36.9%; with WM1745, 121%; in the assay on WM3526 it was 95.5%; in the assay on WM3619, 89.9%; in the assay on WM451Lu it was 166%.
With `COc1ccc(C2=N[C@@H](c3ccc(Cl)cc3)[C@@H](c3ccc(Cl)cc3)N2C(=O)N2CCNC(=O)C2)c(OC(C)C)c1` [Nutlin-3] + COc1cc(N2CCC(N3CCN(C)CC3)CC2)ccc1Nc1ncc(Cl)c(Nc2ccccc2S(=O)(=O)C(C)C)n1 [NVP-TAE684] (first compound 0.1 µM, partner dose 0.08 µM), the “cleaved PARP positive nuclei fraction” value in the assay with WM115 worked out at 74.7%; in the assay on WM1716, 56.4%; with WM1745, 107%; in the assay on WM3526, 87.4%; in the assay with WM3619, 90.2%; in the assay with WM451Lu, 153%.
Regarding `Cn1sc(=O)n(Cc2ccccc2)c1=O` + C[C@]1(c2nc3c(C(N)=O)cccc3[nH]2)CCCN1 [Veliparib] (first compound 0.4 µM, partner dose 1.4 µM), the “cleaved PARP positive nuclei fraction” value amounted to 82.4% in the assay with WM115; 72% in the assay on WM1716; 109% in the assay with WM1745; 83.6% with WM3526; 67.5% with WM3619; 131% in the assay on WM451Lu.
Take `CC(=O)O[C@@]12CO[C@@H]1C[C@H](O)[C@@]1(C)C(=O)[C@H](O)C3=C(C)[C@@H](OC(=O)[C@H](O)[C@@H](NC(=O)OC(C)(C)C)c4ccccc4)C[C@@](O)([C@@H](OC(=O)c4ccccc4)[C@H]21)C3(C)C` [Docetaxel] + CN(NC(=O)CC(=O)NN(C)C(=S)c1ccccc1)C(=S)c1ccccc1 [STA4783] (first compound 0.0001 µM, partner dose 0.006 µM): the “cleaved PARP positive nuclei fraction” value in the assay with WM115 was 572%; in the assay with WM1716, 523%; with WM1745, 224%; with WM3526, 188%; in the assay with WM3619 it was 177%; with WM451Lu, 562%.
Regarding `Cn1cnc2c(F)c(Nc3ccc(Br)cc3Cl)c(C(=O)NOCCO)cc21` [selumetinib] + Cn1cc(/C=C2\C(=O)Nc3cccnc32)c2ccccc21 [GW441756] (first compound 0.015 µM, partner dose 0.4 µM), the “cleaved PARP positive nuclei fraction” value was 87.1% with WM115; 70.5% with WM1716; 93.7% in the assay with WM1745; 105% in the assay on WM3526; 91% with WM3619; 95.8% in the assay on WM451Lu.
With `C[C@]1(O)C[C@@H](c2nc(-c3ccc4ccc(-c5ccccc5)nc4c3)c3c(N)nccn32)C1` + COc1cc2c(Oc3ccc4[nH]c(C)cc4c3F)ncnc2cc1OCCCN1CCCC1 [cediranib] (first compound 0.4 µM, partner dose 0.4 µM), the “cleaved PARP positive nuclei fraction” value with WM115 is 19.6%; in the assay on WM1716, 112%; with WM1745, 121%; in the assay on WM3526, 34.1%; in the assay with WM3619 it was 84.1%; with WM451Lu it was 99.2%.
As for `CCCCCCCCc1ccc(CCC(N)(CO)CO)cc1` [fingolimod] + O=C(O)c1ccc2c(c1)nc(Nc1cccc(Cl)c1)c1ccncc12 [CX4945] (first compound 2 µM, partner dose 0.4 µM), the “cleaved PARP positive nuclei fraction” value was found to be 135% with WM115; 52.9% with WM1716; 114% in the assay with WM1745; 86.4% in the assay on WM3526; 115% in the assay on WM3619; 50.8% in the assay on WM451Lu.
In the case of `CCCCCCCCc1ccc(CCC(N)(CO)CO)cc1` [fingolimod] + COc1ccc2c(c1)CCC1C2CCC2(C)C(NCCCCCCN3C(=O)C=CC3=O)CCC12 [U73122] (first compound 2 µM, partner dose 0.4 µM), the “cleaved PARP positive nuclei fraction” value in the assay on WM115 worked out at 89.2%; in the assay on WM1716, 163%; with WM1745, 105%; in the assay on WM3526, 41.8%; in the assay on WM3619, 84.5%; in the assay on WM451Lu, 48.8%.
In the case of `CC1(C)CCC(c2ccc(Cl)cc2)=C(CN2CCN(c3ccc(C(=O)NS(=O)(=O)c4ccc(N[C@H](CCN5CCOCC5)CSc5ccccc5)c(S(=O)(=O)C(F)(F)F)c4)cc3)CC2)C1` + CCCCCCCCc1ccc(CCC(N)(CO)CO)cc1 [fingolimod] (first compound 0.4 µM, partner dose 2 µM), the “cleaved PARP positive nuclei fraction” value with WM115 was 203%; in the assay on WM1716, 167%; in the assay on WM1745, 315%; in the assay on WM3526, 170%; with WM3619 it was 112%; with WM451Lu, 190%.
For `CC(=O)O[C@@]12CO[C@@H]1C[C@H](O)[C@@]1(C)C(=O)[C@H](O)C3=C(C)[C@@H](OC(=O)[C@H](O)[C@@H](NC(=O)OC(C)(C)C)c4ccccc4)C[C@@](O)([C@@H](OC(=O)c4ccccc4)[C@H]21)C3(C)C` [Docetaxel] + C#Cc1cccc(Nc2ncnc3cc(OCCOC)c(OCCOC)cc23)c1 [erlotinib] (first compound 0.0001 µM, partner dose 0.8 µM), the “cleaved PARP positive nuclei fraction” value in the assay on WM115 amounted to 449%; with WM1716, 608%; in the assay on WM1745, 260%; in the assay with WM3526, 188%; with WM3619 it was 139%; with WM451Lu, 74.9%.
With `COc1ccc(C2=N[C@@H](c3ccc(Cl)cc3)[C@@H](c3ccc(Cl)cc3)N2C(=O)N2CCNC(=O)C2)c(OC(C)C)c1` [Nutlin-3] + Cc1nc(Nc2ncc(C(=O)Nc3c(C)cccc3Cl)s2)cc(N2CCN(CCO)CC2)n1 [dasatanib] (first compound 0.1 µM, partner dose 0.004 µM), the “cleaved PARP positive nuclei fraction” value turned out to be 203% in the assay on WM115; 121% in the assay with WM1716; 147% with WM1745; 84.6% in the assay on WM3526; 109% with WM3619; 22.5% in the assay with WM451Lu.
As to `NC(=O)c1ccc(N(C(N)=O)c2c(F)cccc2F)nc1-c1ccc(F)cc1F` + COc1cc2c(Oc3ccc4[nH]c(C)cc4c3F)ncnc2cc1OCCCN1CCCC1 [cediranib] (first compound 0.4 µM, partner dose 0.4 µM), the “cleaved PARP positive nuclei fraction” value is 36.4% in the assay with WM115; 63.1% in the assay with WM1716; 111% with WM1745; 123% in the assay with WM3526; 96.3% in the assay with WM3619; 152% in the assay with WM451Lu.
In the case of `CCN(CC)CCNC(=O)c1c(C)[nH]c(/C=C2\C(=O)Nc3ccc(F)cc32)c1C` [sunitinib] + NC1(c2ccc(-c3nc4ccn5c(=O)[nH]nc5c4cc3-c3ccccc3)cc2)CCC1 [MK2206] (first compound 0.4 µM, partner dose 0.4 µM), the “cleaved PARP positive nuclei fraction” value in the assay with WM115 is 168%; with WM1716, 111%; with WM1745, 136%; in the assay on WM3526, 190%; in the assay with WM3619 it was 147%; in the assay on WM451Lu it was 82.6%.
On to `CCCCCCCCc1ccc(CCC(N)(CO)CO)cc1` [fingolimod] + OCCn1cc(-c2cnc3nnn(Cc4ccc5ncccc5c4)c3n2)cn1 [PF04217903] (first compound 2 µM, partner dose 1 µM), for which the “cleaved PARP positive nuclei fraction” value with WM115 turned out to be 48.4%; with WM1716 it was 144%; in the assay with WM1745, 129%; in the assay on WM3526 it was 74.6%; with WM3619, 105%; with WM451Lu, 43.7%.
With `CCCCCCCCc1ccc(CCC(N)(CO)CO)cc1` [fingolimod] + Cc1cc([N+](=O)[O-])ccc1NS(=O)(=O)c1cc(Cl)ccc1Cl [FH535] (first compound 2 µM, partner dose 1 µM), the “cleaved PARP positive nuclei fraction” value came out at 188% in the assay with WM115; 144% with WM1716; 95.5% in the assay on WM1745; 242% in the assay on WM3526; 69.8% with WM3619; 56% in the assay with WM451Lu.
As to `CN(c1ncccc1CNc1nc(Nc2ccc3c(c2)CC(=O)N3)ncc1C(F)(F)F)S(C)(=O)=O` + Cn1c(=O)n(-c2ccc(C(C)(C)C#N)cc2)c2c3cc(-c4cnc5ccccc5c4)ccc3ncc21 [NVP-BEZ235] (first compound 0.08 µM, partner dose 0.004 µM), the “cleaved PARP positive nuclei fraction” value worked out at 183% with WM115; 260% in the assay on WM1716; 111% in the assay with WM1745; 114% in the assay with WM3526; 203% with WM3619; 88.8% with WM451Lu.
Take `COc1ccc(C2=N[C@@H](c3ccc(Cl)cc3)[C@@H](c3ccc(Cl)cc3)N2C(=O)N2CCNC(=O)C2)c(OC(C)C)c1` [Nutlin-3] + Cc1cc(N2CCOCC2)cc2[nH]c(-c3c(NC[C@@H](O)c4cccc(Cl)c4)cc[nH]c3=O)nc12 [BMS536924] (first compound 0.1 µM, partner dose 0.2 µM): the “cleaved PARP positive nuclei fraction” value was found to be 211% in the assay on WM115; 54.3% in the assay with WM1716; 123% with WM1745; 62.9% in the assay on WM3526; 105% with WM3619; 114% in the assay on WM451Lu.
On to `NC(=O)c1ccc(N(C(N)=O)c2c(F)cccc2F)nc1-c1ccc(F)cc1F` + CCN(CC)CCNC(=O)c1c(C)[nH]c(/C=C2\C(=O)Nc3ccc(F)cc32)c1C [sunitinib] (first compound 0.4 µM, partner dose 0.4 µM), for which the “cleaved PARP positive nuclei fraction” value turned out to be 93.5% in the assay with WM115; 2.64% in the assay with WM1716; 117% in the assay on WM1745; 57.2% in the assay on WM3526; 92.6% in the assay on WM3619; 51.8% in the assay with WM451Lu.
For `CS(=O)(=O)c1ccc(C(=O)Nc2ccc(Cl)c(-c3ccccn3)c2)c(Cl)c1` [vismodegib] + Cc1nc(Nc2ncc(C(=O)Nc3c(C)cccc3Cl)s2)cc(N2CCN(CCO)CC2)n1 [dasatanib] (first compound 1 µM, partner dose 0.004 µM), the “cleaved PARP positive nuclei fraction” value in the assay on WM115 is 129%; with WM1716 it was 204%; with WM1745, 123%; in the assay on WM3526 it was 82.9%; in the assay on WM3619, 102%; in the assay with WM451Lu, 500%.
Regarding `CCN(CC)CCNC(=O)c1c(C)[nH]c(/C=C2\C(=O)Nc3ccc(F)cc32)c1C` [sunitinib] + CO[C@H]1C[C@@H]2CC[C@@H](C)[C@@](O)(O2)C(=O)C(=O)N2CCCC[C@H]2C(=O)O[C@H]([C@H](C)C[C@@H]2CC[C@@H](OCCO)[C@H](OC)C2)CC(=O)[C@H](C)/C=C(\C)[C@@H](O)[C@@H](OC)C(=O)[C@H](C)C[C@H](C)/C=C/C=C/C=C/1C [everolimus] (first compound 0.4 µM, partner dose 0.02 µM), the “cleaved PARP positive nuclei fraction” value in the assay on WM115 stood at 100%; in the assay with WM1716, 80.2%; in the assay on WM1745, 126%; in the assay on WM3526, 65.2%; with WM3619, 132%; in the assay with WM451Lu, 71.5%.
